Results reported in the supplement of paper PMC10849652.
Some of the results follow.

Sequences of proteins named here, by UniProt entry; tags and fusion partners are left off. A change or cut given only in a name is not applied to a line headed by its entry.
UniProt O15439: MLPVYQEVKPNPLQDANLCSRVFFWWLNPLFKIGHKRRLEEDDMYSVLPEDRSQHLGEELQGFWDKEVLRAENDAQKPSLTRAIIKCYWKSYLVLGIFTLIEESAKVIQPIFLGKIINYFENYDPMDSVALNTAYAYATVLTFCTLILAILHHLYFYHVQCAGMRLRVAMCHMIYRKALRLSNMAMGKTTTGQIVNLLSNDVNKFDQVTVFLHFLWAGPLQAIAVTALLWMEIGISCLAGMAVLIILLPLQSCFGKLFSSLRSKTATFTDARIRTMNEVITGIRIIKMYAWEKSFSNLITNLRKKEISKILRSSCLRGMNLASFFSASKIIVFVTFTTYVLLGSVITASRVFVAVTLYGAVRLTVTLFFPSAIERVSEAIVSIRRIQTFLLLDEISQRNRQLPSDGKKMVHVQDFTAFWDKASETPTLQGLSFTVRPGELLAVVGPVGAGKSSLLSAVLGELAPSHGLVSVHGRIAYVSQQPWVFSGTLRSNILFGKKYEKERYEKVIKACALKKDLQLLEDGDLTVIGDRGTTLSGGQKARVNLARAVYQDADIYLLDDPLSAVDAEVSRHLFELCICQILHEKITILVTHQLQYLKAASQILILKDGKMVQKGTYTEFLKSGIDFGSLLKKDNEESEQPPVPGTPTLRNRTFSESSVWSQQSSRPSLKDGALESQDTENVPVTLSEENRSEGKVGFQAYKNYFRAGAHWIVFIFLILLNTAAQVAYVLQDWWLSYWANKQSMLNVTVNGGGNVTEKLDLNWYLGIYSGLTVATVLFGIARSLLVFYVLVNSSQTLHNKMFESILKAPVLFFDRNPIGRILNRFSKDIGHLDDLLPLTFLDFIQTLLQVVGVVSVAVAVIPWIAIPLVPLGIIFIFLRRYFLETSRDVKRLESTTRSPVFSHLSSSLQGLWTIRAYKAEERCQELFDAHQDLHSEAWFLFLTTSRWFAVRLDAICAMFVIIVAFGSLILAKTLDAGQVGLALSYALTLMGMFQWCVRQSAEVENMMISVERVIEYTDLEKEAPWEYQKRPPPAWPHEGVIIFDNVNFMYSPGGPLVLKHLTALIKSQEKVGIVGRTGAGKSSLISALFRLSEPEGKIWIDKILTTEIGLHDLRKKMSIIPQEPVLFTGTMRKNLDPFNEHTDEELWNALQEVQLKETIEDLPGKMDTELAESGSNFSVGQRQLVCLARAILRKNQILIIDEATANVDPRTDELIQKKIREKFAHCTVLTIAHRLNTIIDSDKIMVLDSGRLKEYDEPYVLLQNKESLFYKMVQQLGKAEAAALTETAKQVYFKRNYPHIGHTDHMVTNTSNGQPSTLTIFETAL
UniProt Q9NZ32, whole entry, looked up: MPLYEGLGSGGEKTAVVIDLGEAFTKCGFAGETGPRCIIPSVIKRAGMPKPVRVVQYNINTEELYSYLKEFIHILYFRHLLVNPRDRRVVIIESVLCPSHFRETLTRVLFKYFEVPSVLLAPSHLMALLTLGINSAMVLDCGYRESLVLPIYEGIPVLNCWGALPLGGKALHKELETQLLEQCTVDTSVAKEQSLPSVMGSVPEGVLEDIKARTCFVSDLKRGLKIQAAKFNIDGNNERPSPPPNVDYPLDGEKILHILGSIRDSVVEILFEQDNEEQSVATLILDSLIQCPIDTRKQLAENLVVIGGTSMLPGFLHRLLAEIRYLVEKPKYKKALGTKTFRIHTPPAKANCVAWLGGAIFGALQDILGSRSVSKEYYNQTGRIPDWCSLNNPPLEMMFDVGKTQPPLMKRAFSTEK
UniProt Q9NRK6: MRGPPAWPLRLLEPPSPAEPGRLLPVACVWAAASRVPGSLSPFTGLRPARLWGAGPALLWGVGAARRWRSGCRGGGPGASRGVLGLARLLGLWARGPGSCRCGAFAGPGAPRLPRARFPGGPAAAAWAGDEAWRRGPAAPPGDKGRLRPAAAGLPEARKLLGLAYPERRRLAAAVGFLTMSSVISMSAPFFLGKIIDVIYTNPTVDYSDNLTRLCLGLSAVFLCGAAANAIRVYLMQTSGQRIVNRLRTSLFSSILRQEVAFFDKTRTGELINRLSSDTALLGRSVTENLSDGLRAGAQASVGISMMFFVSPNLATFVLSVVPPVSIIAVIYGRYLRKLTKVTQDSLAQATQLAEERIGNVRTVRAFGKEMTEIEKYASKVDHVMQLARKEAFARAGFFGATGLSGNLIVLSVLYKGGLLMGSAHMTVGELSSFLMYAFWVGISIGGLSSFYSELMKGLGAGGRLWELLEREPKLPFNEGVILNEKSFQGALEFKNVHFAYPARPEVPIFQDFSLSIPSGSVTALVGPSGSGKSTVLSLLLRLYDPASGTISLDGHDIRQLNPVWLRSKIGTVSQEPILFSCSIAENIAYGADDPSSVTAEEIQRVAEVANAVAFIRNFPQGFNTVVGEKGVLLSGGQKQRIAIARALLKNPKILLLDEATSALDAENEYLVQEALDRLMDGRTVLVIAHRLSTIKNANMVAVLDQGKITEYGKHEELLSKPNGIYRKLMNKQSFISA
UniProt P49588, whole entry, looked up: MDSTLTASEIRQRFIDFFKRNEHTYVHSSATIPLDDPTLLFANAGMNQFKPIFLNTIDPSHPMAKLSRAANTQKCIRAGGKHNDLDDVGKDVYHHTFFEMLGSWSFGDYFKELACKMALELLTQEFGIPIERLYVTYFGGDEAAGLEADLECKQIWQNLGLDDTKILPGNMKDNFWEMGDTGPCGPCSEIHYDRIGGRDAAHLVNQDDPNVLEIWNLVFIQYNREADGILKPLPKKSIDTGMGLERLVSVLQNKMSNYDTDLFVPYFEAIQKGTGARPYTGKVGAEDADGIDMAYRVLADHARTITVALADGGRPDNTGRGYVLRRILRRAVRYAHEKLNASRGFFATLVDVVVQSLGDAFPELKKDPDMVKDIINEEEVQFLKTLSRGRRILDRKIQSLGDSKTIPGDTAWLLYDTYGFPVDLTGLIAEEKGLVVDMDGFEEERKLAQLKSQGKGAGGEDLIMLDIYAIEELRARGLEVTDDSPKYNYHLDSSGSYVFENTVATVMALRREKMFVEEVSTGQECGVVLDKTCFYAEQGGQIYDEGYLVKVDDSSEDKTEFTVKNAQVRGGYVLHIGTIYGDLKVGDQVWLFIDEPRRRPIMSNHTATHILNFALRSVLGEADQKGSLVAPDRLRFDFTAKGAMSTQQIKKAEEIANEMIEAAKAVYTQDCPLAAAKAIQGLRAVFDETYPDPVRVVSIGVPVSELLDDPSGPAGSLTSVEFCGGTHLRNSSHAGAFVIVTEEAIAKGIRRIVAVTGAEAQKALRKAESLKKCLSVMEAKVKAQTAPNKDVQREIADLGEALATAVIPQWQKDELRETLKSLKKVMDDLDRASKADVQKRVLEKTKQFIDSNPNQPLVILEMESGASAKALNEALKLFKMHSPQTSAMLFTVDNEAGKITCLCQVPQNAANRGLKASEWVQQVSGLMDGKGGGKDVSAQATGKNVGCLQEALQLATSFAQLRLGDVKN
UniProt Q96IU4: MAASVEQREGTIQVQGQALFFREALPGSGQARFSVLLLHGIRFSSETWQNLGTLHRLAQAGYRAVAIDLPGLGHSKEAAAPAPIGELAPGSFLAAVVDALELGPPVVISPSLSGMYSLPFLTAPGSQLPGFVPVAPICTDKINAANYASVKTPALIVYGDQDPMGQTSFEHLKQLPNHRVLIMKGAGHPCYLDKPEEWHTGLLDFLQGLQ
UniProt P49748: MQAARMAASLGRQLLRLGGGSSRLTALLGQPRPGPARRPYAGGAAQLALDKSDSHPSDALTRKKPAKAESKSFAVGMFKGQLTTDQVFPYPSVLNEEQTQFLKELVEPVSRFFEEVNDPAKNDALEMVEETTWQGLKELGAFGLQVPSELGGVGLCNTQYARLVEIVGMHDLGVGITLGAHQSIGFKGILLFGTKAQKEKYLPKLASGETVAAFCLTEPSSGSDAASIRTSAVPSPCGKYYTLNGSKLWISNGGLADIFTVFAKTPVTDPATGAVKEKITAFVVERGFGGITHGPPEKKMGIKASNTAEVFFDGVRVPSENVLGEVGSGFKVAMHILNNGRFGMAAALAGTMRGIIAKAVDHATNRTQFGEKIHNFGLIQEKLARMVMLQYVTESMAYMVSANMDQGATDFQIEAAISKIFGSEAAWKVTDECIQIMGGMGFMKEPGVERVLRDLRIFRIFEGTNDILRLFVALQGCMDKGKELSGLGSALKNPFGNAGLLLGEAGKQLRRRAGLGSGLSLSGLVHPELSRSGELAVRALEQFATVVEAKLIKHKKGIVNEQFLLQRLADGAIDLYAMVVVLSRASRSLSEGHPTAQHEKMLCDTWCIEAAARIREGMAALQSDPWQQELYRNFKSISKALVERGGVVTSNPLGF
UniProt P24666: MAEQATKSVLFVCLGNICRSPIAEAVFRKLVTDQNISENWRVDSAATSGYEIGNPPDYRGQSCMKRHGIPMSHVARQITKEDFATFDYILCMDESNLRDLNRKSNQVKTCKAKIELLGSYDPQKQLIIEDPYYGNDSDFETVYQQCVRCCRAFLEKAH
UniProt P61163, whole entry, looked up: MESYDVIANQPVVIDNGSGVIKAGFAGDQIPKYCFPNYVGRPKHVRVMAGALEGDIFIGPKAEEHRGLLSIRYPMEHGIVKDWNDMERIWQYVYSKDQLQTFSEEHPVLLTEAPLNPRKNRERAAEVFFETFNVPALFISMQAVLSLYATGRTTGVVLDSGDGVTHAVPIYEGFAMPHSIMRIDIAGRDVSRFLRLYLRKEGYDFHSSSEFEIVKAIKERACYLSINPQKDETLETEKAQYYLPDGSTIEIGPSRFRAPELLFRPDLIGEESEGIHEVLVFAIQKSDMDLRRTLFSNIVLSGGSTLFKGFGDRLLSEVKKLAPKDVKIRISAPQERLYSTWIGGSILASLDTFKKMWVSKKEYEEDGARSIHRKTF
UniProt O14639: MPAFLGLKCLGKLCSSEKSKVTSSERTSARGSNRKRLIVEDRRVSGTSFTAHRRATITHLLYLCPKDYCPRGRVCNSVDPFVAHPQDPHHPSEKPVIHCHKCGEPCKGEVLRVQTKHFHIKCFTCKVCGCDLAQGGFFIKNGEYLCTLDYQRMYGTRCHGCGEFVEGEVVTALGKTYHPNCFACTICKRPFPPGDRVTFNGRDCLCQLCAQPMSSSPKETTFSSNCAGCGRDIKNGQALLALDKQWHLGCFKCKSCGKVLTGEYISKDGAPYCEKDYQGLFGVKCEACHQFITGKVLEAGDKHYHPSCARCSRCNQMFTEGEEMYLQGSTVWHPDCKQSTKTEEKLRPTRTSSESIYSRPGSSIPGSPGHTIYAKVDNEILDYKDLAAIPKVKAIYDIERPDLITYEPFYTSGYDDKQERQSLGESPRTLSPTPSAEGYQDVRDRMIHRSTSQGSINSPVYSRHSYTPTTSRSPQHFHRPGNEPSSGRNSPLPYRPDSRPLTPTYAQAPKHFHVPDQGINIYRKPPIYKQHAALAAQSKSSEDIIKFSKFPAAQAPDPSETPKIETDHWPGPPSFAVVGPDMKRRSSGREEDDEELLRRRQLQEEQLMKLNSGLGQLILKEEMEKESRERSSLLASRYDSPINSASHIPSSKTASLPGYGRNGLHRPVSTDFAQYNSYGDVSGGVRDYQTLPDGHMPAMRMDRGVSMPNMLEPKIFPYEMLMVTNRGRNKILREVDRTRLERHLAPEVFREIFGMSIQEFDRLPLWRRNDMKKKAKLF
UniProt O43707, whole entry, looked up: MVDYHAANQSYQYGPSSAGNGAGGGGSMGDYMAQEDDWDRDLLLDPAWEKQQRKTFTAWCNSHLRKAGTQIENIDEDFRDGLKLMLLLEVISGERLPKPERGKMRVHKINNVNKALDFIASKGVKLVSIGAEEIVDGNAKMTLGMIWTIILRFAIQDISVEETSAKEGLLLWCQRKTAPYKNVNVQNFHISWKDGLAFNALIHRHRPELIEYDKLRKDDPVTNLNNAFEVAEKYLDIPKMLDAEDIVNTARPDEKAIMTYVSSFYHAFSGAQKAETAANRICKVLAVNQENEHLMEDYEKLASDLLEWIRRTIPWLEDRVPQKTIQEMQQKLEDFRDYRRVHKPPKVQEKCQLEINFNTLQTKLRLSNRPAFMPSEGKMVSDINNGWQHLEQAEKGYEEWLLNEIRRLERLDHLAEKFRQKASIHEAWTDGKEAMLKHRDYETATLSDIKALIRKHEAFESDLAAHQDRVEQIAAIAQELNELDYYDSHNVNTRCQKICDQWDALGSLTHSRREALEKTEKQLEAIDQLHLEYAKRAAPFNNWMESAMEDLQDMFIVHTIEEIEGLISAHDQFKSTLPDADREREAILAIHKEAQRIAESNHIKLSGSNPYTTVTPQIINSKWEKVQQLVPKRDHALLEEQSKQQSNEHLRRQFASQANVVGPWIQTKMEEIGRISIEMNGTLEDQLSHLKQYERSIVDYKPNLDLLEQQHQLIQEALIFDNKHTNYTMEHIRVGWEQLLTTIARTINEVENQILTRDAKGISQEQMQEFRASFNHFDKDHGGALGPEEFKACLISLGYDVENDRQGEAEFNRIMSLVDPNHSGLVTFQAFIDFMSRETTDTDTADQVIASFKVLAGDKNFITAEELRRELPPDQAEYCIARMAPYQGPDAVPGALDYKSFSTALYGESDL

Legend:
Experiment in all cases: log2 fold change, soluble protein after heating vs DMSO (PISA); higher = thermal stabilisation; K562 cells, 10 uM, 30 min; active = over 0.2 and 3.5 SD of the protein, either way, in both replicates (recomputed)
[1] = compound: COC1=CC=C(C=C1)CN2C=CC3=C2C=C(C=C3)C(=O)NO
In short: (§1)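 Values are thermal stability changes relative to control samples and are taken from duplicates. They are stated as log2 fold changes. Before quantification by TMTpro 16plex LC-MS/MS with equalised channel sums, K562 cells at 2×10^6 cells/mL were treated with 10 μM compound for 30 min, heated in aliquots for 3 min across 48°C-58°C, pooled, extracted in PBS with 0.5% NP-40 at 4°C, and centrifuged at 21,000xg for 90 min to give the soluble supernatant.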

filanesib = compound: CON(C)C(=O)N1N=C(c2cc(F)ccc2F)S[C@@]1(CCCN)c1ccccc1 [filanesib]
In short: as §1

zotarolimus = compound: CO[C@H]1C[C@@H]2CC[C@@H](C)[C@@](O)(O2)C(=O)C(=O)N2CCCC[C@H]2C(=O)O[C@H]([C@H](C)C[C@@H]2CC[C@H](n3cnnn3)[C@H](OC)C2)CC(=O)[C@H](C)/C=C(\C)[C@@H](O)[C@@H](OC)C(=O)[C@H](C)C[C@H](C)/C=C/C=C/C=C/1C [zotarolimus]
In short: as §1

idasanutlin = compound: COc1cc(C(=O)O)ccc1NC(=O)[C@@H]1N[C@@H](CC(C)(C)C)[C@](C#N)(c2ccc(Cl)cc2F)[C@H]1c1cccc(Cl)c1F [idasanutlin]
In short: as §1

alisertib = compound: COc1cc(Nc2ncc3c(n2)-c2ccc(Cl)cc2C(c2c(F)cccc2OC)=NC3)ccc1C(=O)O [alisertib]
In short: as §1

[2] = compound: COc1cc2nc(-c3cc(F)ccc3O)nc(N[C@@H]3CNC[C@H]3C(C)(C)O)c2cc1OC
In short: as §1

gefitinib = compound: COc1cc2ncnc(Nc3ccc(F)c(Cl)c3)c2cc1OCCCN1CCOCC1 [gefitinib]
In short: as §1

[3] = compound: COc1cccc2cc(-c3nc([C@H]4CC[C@H](C(=O)O)CC4)n4ncnc(N)c34)[nH]c12
In short: as §1

lapatinib = compound: CS(=O)(=O)CCNCc1ccc(-c2ccc3ncnc(Nc4ccc(OCc5cccc(F)c5)c(Cl)c4)c3c2)o1 [lapatinib]
In short: as §1

pictilisib = compound: CS(=O)(=O)N1CCN(Cc2cc3nc(-c4cccc5[nH]ncc45)nc(N4CCOCC4)c3s2)CC1 [pictilisib]
In short: as §1

[4] = compound: CS(=O)(=O)c1ccc(-c2cnc(N)c(C(=O)Nc3ccccc3)n2)cc1
In short: as §1

crizotinib = compound: C[C@@H](Oc1cc(-c2cnn(C3CCNCC3)c2)cnc1N)c1c(Cl)ccc(F)c1Cl [crizotinib]
In short: as §1

[5] = compound: C[C@@H]1COCCN1C2=NC(=NC(=C2)C3(CC3)S(=O)(=O)C)C4=C5C=CNC5=CC=C4
In short: as §1

[6] = compound: C[C@H](C1=CC=C(C=C1)C(=O)NC2=C3C=CNC3=NC=C2)N
In short: as §1

duvelisib = compound: C[C@H](Nc1ncnc2nc[nH]c12)c1cc2cccc(Cl)c2c(=O)n1-c1ccccc1 [duvelisib]
In short: as §1

gandotinib = compound: Cc1cc(Nc2cc(CN3CCOCC3)c3nc(C)c(Cc4ccc(Cl)cc4F)n3n2)n[nH]1 [gandotinib]
In short: as §1

tozasertib = compound: Cc1cc(Nc2cc(N3CCN(C)CC3)nc(Sc3ccc(NC(=O)C4CC4)cc3)n2)n[nH]1 [tozasertib]
In short: as §1

[7] = compound: Cc1cc(SCc2sc(-c3ccc(C(F)(F)F)cc3)nc2C)ccc1OCC(=O)O
In short: as §1

doramapimod = compound: Cc1ccc(-n2nc(C(C)(C)C)cc2NC(=O)Nc2ccc(OCCN3CCOCC3)c3ccccc23)cc1 [doramapimod]
In short: as §1

ispinesib = compound: Cc1ccc(C(=O)N(CCCN)[C@@H](c2nc3cc(Cl)ccc3c(=O)n2Cc2ccccc2)C(C)C)cc1 [ispinesib]
In short: as §1

Measured: log2 fold change

ABCC4 (UniProt O15439)
inactive: [1] 0.023 | filanesib 0.067 | zotarolimus -0.029 | idasanutlin -0.021 | alisertib -0.05 | [2] 0.058 | gefitinib 0.021 | [3] 0.062 | lapatinib -0.024 | pictilisib 0.046 | [4] 0.062 | crizotinib 0.083 | [5] 0.063 | [6] -0.072 | duvelisib 0.063 | gandotinib 0.022 | tozasertib -0.074 | [7] -0.052 | doramapimod 0.004 | ispinesib 0.082

ACTR10 (UniProt Q9NZ32)
inactive: [1] 0.052 | filanesib 0 | zotarolimus -0.085 | idasanutlin -0.045 | alisertib -0.07 | [2] 0.034 | gefitinib -0.001 | [3] 0.008 | lapatinib -0.003 | pictilisib -0.057 | [4] -0.015 | crizotinib 0.061 | [5] 0.004 | [6] 0.027 | duvelisib 0.089 | gandotinib -0.029 | tozasertib 0.001 | [7] 0.008 | doramapimod 0.02 | ispinesib 0.064

ABCB10 (UniProt Q9NRK6)
inactive: [1] -0.043 | filanesib -0.038 | zotarolimus 0.006 | idasanutlin -0.028 | alisertib -0.092 | [2] 0.029 | gefitinib 0.011 | [3] 0.052 | lapatinib -0.005 | pictilisib 0.016 | [4] 0.02 | crizotinib 0.043 | [5] 0.026 | [6] -0.03 | duvelisib 0.012 | gandotinib -0.052 | tozasertib -0.017 | [7] -0.035 | doramapimod -0.041 | ispinesib -0.017

ACTR2 (UniProt P61160)
inactive: [1] -0.033 | filanesib 0.012 | zotarolimus 0.019 | idasanutlin -0.027 | alisertib -0.002 | [2] 0.032 | gefitinib -0.007 | [3] 0.068 | lapatinib -0.033 | pictilisib 0.047 | [4] 0.022 | crizotinib 0.023 | [5] 0.029 | [6] -0.064 | duvelisib 0.012 | gandotinib 0.078 | tozasertib 0.022 | [7] -0.014 | doramapimod -0.005 | ispinesib 0.043

AARS (UniProt P49588)
inactive: [1] 0.047 | filanesib -0.11 | zotarolimus 0.024 | idasanutlin -0.055 | alisertib -0.038 | [2] -0.019 | gefitinib -0.031 | [3] 0.019 | lapatinib -0.012 | pictilisib 0 | [4] 0.008 | crizotinib -0.035 | [5] 0.082 | [6] -0.043 | duvelisib 0.053 | gandotinib -0.042 | tozasertib -0.003 | [7] 0 | doramapimod -0.005 | ispinesib 0.003

ACAT2 (UniProt Q9BWD1)
inactive: [1] 0.051 | filanesib -0.027 | zotarolimus 0.04 | idasanutlin 0.031 | alisertib -0.116 | [2] 0.037 | gefitinib 0.017 | [3] 0.058 | lapatinib 0 | pictilisib 0.028 | [4] -0.018 | crizotinib -0.017 | [5] 0.011 | [6] -0.014 | duvelisib 0.043 | gandotinib -0.032 | tozasertib -0.085 | [7] -0.042 | doramapimod -0.016 | ispinesib -0.016

2 successive entries from above:
ACTR2 (UniProt P61160)
inactive: [1] -0.033 | filanesib 0.012 | zotarolimus 0.019 | idasanutlin -0.027 | alisertib -0.002 | [2] 0.032 | gefitinib -0.007 | [3] 0.068 | lapatinib -0.033 | pictilisib 0.047 | [4] 0.022 | crizotinib 0.023 | [5] 0.029 | [6] -0.064 | duvelisib 0.012 | gandotinib 0.078 | tozasertib 0.022 | [7] -0.014 | doramapimod -0.005 | ispinesib 0.043

AARS (UniProt P49588)
inactive: [1] 0.047 | filanesib -0.11 | zotarolimus 0.024 | idasanutlin -0.055 | alisertib -0.038 | [2] -0.019 | gefitinib -0.031 | [3] 0.019 | lapatinib -0.012 | pictilisib 0 | [4] 0.008 | crizotinib -0.035 | [5] 0.082 | [6] -0.043 | duvelisib 0.053 | gandotinib -0.042 | tozasertib -0.003 | [7] 0 | doramapimod -0.005 | ispinesib 0.003

Next part.

ABCB7 isoform 2 (UniProt O75027)
inactive: [1] -0.05 | filanesib -0.164 | zotarolimus 0.017 | idasanutlin -0.125 | alisertib -0.02 | [2] -0.031 | gefitinib -0.003 | [3] 0.052 | lapatinib 0.022 | pictilisib 0.002 | [4] 0.018 | crizotinib -0.034 | [5] 0.035 | [6] -0.101 | duvelisib 0.06 | gandotinib -0.109 | tozasertib -0.017 | [7] -0.012 | doramapimod -0.016 | ispinesib -0.15

ACLY (UniProt P53396)
inactive: [1] -0.026 | filanesib -0.043 | zotarolimus 0.028 | idasanutlin -0.009 | alisertib -0.049 | [2] 0.02 | gefitinib -0.003 | [3] 0.009 | lapatinib -0.02 | pictilisib 0.032 | [4] 0.005 | crizotinib 0.021 | [5] 0.052 | [6] -0.063 | duvelisib 0.035 | gandotinib 0.009 | tozasertib 0.017 | [7] -0.001 | doramapimod 0 | ispinesib 0.033

AARS2 (UniProt Q5JTZ9)
inactive: [1] -0.053 | filanesib -0.159 | zotarolimus 0.029 | idasanutlin -0.107 | alisertib 0.016 | [2] -0.012 | gefitinib -0.002 | [3] 0.047 | lapatinib -0.005 | pictilisib 0.06 | [4] 0.017 | crizotinib -0.04 | [5] 0.138 | [6] -0.03 | gandotinib -0.058 | [7] 0.036 | doramapimod 0.026
active: ispinesib -0.223

ABHD14B (UniProt Q96IU4)
inactive: [1] 0.046 | filanesib 0.001 | zotarolimus 0.022 | idasanutlin -0.037 | alisertib -0.061 | [2] -0.037 | gefitinib 0.041 | [3] 0.017 | lapatinib 0.006 | pictilisib -0.011 | [4] -0.013 | crizotinib -0.005 | [5] 0.167 | [6] -0.135 | duvelisib 0.091 | gandotinib -0.095 | tozasertib 0.046 | [7] 0.028 | doramapimod 0 | ispinesib 0.148

ACADVL isoform 3 (UniProt P49748)
inactive: [1] 0 | filanesib -0.069 | zotarolimus 0.019 | idasanutlin -0.04 | alisertib -0.031 | [2] -0.089 | gefitinib -0.019 | [3] 0.025 | lapatinib -0.12 | pictilisib 0.093 | [4] 0.042 | crizotinib 0.021 | [5] 0.078 | [6] -0.058 | gandotinib -0.01 | [7] -0.005 | doramapimod -0.065 | ispinesib -0.01

ACP1 (UniProt P24666)
inactive: [1] 0.008 | filanesib -0.047 | zotarolimus -0.039 | idasanutlin -0.078 | alisertib 0.029 | [2] 0.056 | gefitinib 0.003 | [3] -0.086 | lapatinib -0.073 | pictilisib -0.062 | [4] 0.077 | crizotinib -0.063 | [5] -0.033 | [6] 0.165 | gandotinib -0.083 | [7] 0.324 | doramapimod 0.141

ACTR1A (UniProt P61163)
inactive: [1] 0.028 | filanesib 0.009 | zotarolimus 0.005 | idasanutlin 0.004 | alisertib -0.032 | [2] 0.122 | gefitinib 0.045 | [3] -0.006 | lapatinib -0.029 | pictilisib 0.032 | [4] 0.011 | crizotinib 0.097 | [5] 0.019 | [6] 0.026 | duvelisib 0.028 | gandotinib -0.035 | tozasertib 0.023 | [7] 0.007 | doramapimod -0.03 | ispinesib 0.06

ABLIM1 (UniProt O14639)
inactive: [1] 0.033 | filanesib 0.24 | zotarolimus -0.117 | idasanutlin -0.163 | alisertib 1.49 | [2] 0.179 | gefitinib 0.035 | [3] 0.033 | lapatinib -0.126 | pictilisib -0.145 | [4] -0.027 | crizotinib -0.033 | [5] 0.099 | [6] -0.204 | duvelisib 0.159 | gandotinib -0.17 | tozasertib -0.028 | [7] 0.207 | doramapimod -0.054 | ispinesib 0.073

ACTR3 (UniProt P61158)
inactive: [1] -0.006 | filanesib 0.008 | zotarolimus -0.007 | idasanutlin -0.005 | alisertib -0.093 | [2] 0.025 | gefitinib -0.001 | [3] 0.055 | lapatinib -0.025 | pictilisib -0.036 | [4] 0.042 | crizotinib 0.032 | [5] 0.025 | [6] -0.058 | duvelisib -0.018 | gandotinib -0.026 | tozasertib 0.029 | [7] -0.005 | doramapimod -0.014 | ispinesib 0.071

ACTN4 (UniProt O43707)
inactive: [1] 0.014 | filanesib -0.009 | zotarolimus 0.022 | idasanutlin -0.017 | alisertib -0.033 | [2] 0.019 | gefitinib 0.005 | [3] 0.047 | lapatinib -0.048 | pictilisib 0.012 | [4] -0.006 | crizotinib 0.075 | [5] -0.002 | [6] -0.027 | duvelisib 0.025 | gandotinib -0.024 | tozasertib 0.02 | [7] -0.036 | doramapimod -0.016 | ispinesib 0.027
